Test results published in US20060134102A1, “Lymphotoxin beta receptor agents in combination with chemotherapeutic agents” (Biogen Idec MA Inc., priority 2002, published 2006).

Tested on: KM-20L2 human colorectal adenocarcinoma
Assay: KM-20L2 xenograft model: growth of established KM-20L2 human colorectal tumors in athymic nude mice (tumor volume/weight, % T/C, Fa, Combination Index)
Assay type: in vivo
Details: Mean

Q: Which results are given for `Nc1ccn([C@@H]2O[C@H](CO)[C@@H](O)C2(F)F)c(=O)n1` [Gemcitabine, gemcitabine, reference compound]?
A: Dose-Effect Curve Slope (Day 16): 1.23; Dose-Effect Curve Y-Intercept (Day 16): −1.42; Dose-Effect Curve Slope (Day 20): 1.36; Dose-Effect Curve Y-Intercept (Day 20): −1.37; Dose-Effect Curve Slope (Day 23): 1.31; Dose-Effect Curve Y-Intercept (Day 23): −1.35; Dose-Effect Curve Slope (Day 27): 1.31; Dose-Effect Curve Y-Intercept (Day 27): −1.45; Dose-Effect Curve Slope (Day 30): 1.12; Dose-Effect Curve Y-Intercept (Day 30): −1.29; Dose-Effect Curve Slope (Day 34): 0.86; Dose-Effect Curve Y-Intercept (Day 34): −1.00; Dose-Effect Curve Slope (Day 37): 0.90; Dose-Effect Curve Y-Intercept (Day 37): −1.06; Dose-Effect Curve Slope (Day 41): 0.87; Dose-Effect Curve Y-Intercept (Day 41): −1.07; Dose-Effect Curve Slope (Day 43): 0.98; Dose-Effect Curve Y-Intercept (Day 43): −1.20
